Binding data for one molecule are collected here from article PMC5962530.

These are yes or no findings as the source states them, for the method shown. Binding seen in cells or lysates may run through a third protein. These calls come from enrichment with a bait or labelling near it, and not all partners need be listed. For some assays here: A no says only that the protein was not detected with the bait.

Assay [1] has as its target T1, biotin-URP (biotinylated unrelated peptide).
T1 sequence (peptide, biotinylated (position not stated); cyclo-peptide): CNKSPSGNC
The assay is described as follows: affinity purification with mass spectrometry; biotin-GX1 pre-conjugated to Dynabeads M-280 Streptavidin; co-HUVEC lysate first cleared with bare beads (room temperature, 6 h) and with biotin-URP beads (4 °C overnight), then incubated with GX1 beads at 4 °C for 36 h; ~70 kDa Coomassie band excised, trypsin digested, Q-Exactive MS; only the target purified.

Assay [2] concerns the target T2, biotin-GX1 (biotinylated peptide GX1).
T2 sequence (peptide, biotinylated (position not stated); cyclic peptide): CGNSNPKSC
Described as above.

B1: transglutaminase-2 (TGM2) (protein, UniProt P21980 1-687)
chain: MAEELVLERCDLELETNGRDHHTADLCREKLVVRRGQPFWLTLHFEGRNYEASVDSLTFSVVTGPAPSQEAGTKARFPLRDAVEEGDWTATVVDQQDCTLSLQLTTPANAPIGLYRLSLEASTGYQGSSFVLGHFILLFNAWCPADAVYLDSEEERQEYVLTQQGFIYQGSAKFIKNIPWNFGQFEDGILDICLILLDVNPKFLKNAGRDCSRRSSPVYVGRVVSGMVNCNDDQGVLLGRWDNNYGDGVSPMSWIGSVDILRRWKNHGCQRVKYGQCWVFAAVACTVLRCLGIPTRVVTNYNSAHDQNSNLLIEYFRNEFGEIQGDKSEMIWNFHCWVESWMTRPDLQPGYEGWQALDPTPQEKSEGTYCCGPVPVRAIKEGDLSTKYDAPFVFAEVNADVVDWIQQDDGSVHKSINRSLIVGLKISTKSVGRDEREDITHTYKYPEGSSEEREAFTRANHLNKLAEKEETGMAMRIRVGQSMNMGSDFDVFAHITNNTAEEYVCRLLLCARTVSYNGILGPECGTKYLLNLNLEPFSEKSVPLCILYEKYRDCLTESNLIKVRALLVEPVINSYLLAERDLYLENPEIKIRILGEPKQKRKLVAEVSLQNPLPVALEGCTFTVEGAGLTEEQKTVEIPDPVEAGEEVKVRMDLLPLHMGLHKLVVNFESDKLKAVKGFRNVIIGPA
For B1, the binding entry in assay [1] is reported as “no binding”; in assay [2] it was “binds”.
